From patent US20250388687A1
Where a chain is given by its changes, count along the chain named. No constants are given. Whether binding was seen depends on the method and setting. Some binding calls cover weakened binding; strength is not graded here.

Chains of the proteins cited; added tags and fusions are not shown. Residues count along the entry.
UniProt P32927, residues 17-443: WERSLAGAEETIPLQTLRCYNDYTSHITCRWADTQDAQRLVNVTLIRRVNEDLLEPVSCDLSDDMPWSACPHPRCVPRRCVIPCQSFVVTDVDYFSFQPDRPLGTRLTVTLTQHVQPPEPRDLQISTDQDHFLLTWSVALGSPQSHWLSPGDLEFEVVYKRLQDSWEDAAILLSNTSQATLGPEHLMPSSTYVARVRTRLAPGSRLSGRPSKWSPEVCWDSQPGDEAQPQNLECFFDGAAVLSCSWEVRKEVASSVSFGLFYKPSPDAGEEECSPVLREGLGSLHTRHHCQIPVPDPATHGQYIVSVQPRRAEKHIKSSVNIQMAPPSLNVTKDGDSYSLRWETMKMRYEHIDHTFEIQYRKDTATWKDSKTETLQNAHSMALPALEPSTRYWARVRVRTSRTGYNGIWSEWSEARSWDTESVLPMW

B1: EPOR/CD131 binder, HC SEQ ID NO 1667 / LC SEQ ID NO 1803 (antibody, V domains shown)
VH: EVQLVESGGGLVQPGGSLRLSCAASGFTFNRYNMNWVRQAPGKGLEWVSYISSSSDTIYYADSVKGRFTISRDNAKNSLYLQMNSLRDEDTAMYYCARECYSSSWAFDYWGQGTLVTVSS
VL: SSELTQDPAVSVALGQTVRITCQGDSLRSYYASWYQQKPGQAPVLVIYGKNNRPSGILDRFSGSSSGNTASLTITGAQAEDEGDYYCNSRDSSGWVFGGGTKLTVL
B2: EPOR/CD131 binder, HC SEQ ID NO 1647 / LC SEQ ID NO 1783 (antibody, V domains shown)
VH: QVQLVQSGAEVKKPGASVKVSCKASGYTFTSYGISWVRQAPGQGLEWMGWISAYNGNTNYAQKLQGRVTMTTDTSTSTAYMELRSLRSDDTAVYYCARRGTVVFDYWGQGTLVTVSS
VL: QSALTQPASVSGSPGQSITISCTGTSSDVGGYNYVSWYQQHPGKAPKLMIYDVSKRPSGVSNRFSGSKSGNTASLTISGLQAEDEADYYCCSYAGSSTYVVFGGGTKLTVL
B3: EPOR/CD131 binder, HC SEQ ID NO 1648 / LC SEQ ID NO 1784 (antibody, V domains shown)
VH: B2 VH with S31N, K63N, R99P, G100L, T101S, V102G, V103T, F104L, Y106N
VL: QSALTQPASVSGSPGQSITISCTGTSSDVGGYNYVSWYQQHPGKAPKLMIYDVSKRPSGVSNRFSGSKSGNTASLTISGLQAEDEADYYCCSYAGRSTLGIDWVFGGGTKLTVR
B4: EPOR/CD131 binder, HC SEQ ID NO 1669 / LC SEQ ID NO 1805 (antibody, V domains shown)
VH: EVQLVESGGGLVQPGGSLRLSCGVSGFTFSIYWMSWVRQAPGKGLEWVANINLDGSEKYHVDSVKGRFTISRDNAKNSLFLQMTSLRAEDTAVYYCARDILWSGGYLDVWGKGTTVTVSS
VL: SSELTQDPAVSVALGQTVRITCQGDNIRNYYASWYQQKPGQAPLLVISGKNNRPSGIPDRFSGSSSGNTASLTITGAQAEDEAYYYCYSRDSSGSLWIFGGGTKLTVL
B5: EPOR/CD131 binder, HC SEQ ID NO 1635 / LC SEQ ID NO 1771 (antibody, V domains shown)
VH: QVQLVESGGGVVQPGRSLRLSCEASGFTFINYGMHWVRQAPGKGLEWVAVIWYDGSNKYYADSVKGRFTISRDNSKNTLYLQMNSLRAEDTAVYYCARDRSSSSDYWGQGTLVIVSS
VL: SYELTQPSSVSVSPGQTARITCSGDVLAKKYARWFQQKPGQAPVLVIYKDSERPSGIPERFSGSSSGTTVTLTISGAQVEDEADYYCYSAADNNRVFGGGTKLTVL
B6: EPOR/CD131 binder, HC SEQ ID NO 1660 / LC SEQ ID NO 1796 (antibody, V domains shown)
VH: EVQLVESGGGVVRPGGSLRLSCAASGFPFDDFGLNWVRQAPGKGLEWVSGINWNGGTTTYADSVKGRFTISRDNAKKSLYLQMSSLRVEDTALFYCVRDEIWNYYFDYWGQGTLVTVSS
VL: B5 VL
B7: EPOR/CD131 binder, HC SEQ ID NO 1657 / LC SEQ ID NO 1793 (antibody, V domains shown)
VH: EVQLVESGGGLVKPGGSLRLSCAASGFTFSSYSMNWVRQAPGKGLEWVSSISSSSSYIYYADSVKGRFTISRDNAKNSLYLQMNSLRAEDTAVYYCARDSAYYTFDYWGQGTLVTVSS
VL: QSALTQPPSASGSPGQSVTISCTGTSSDVGGYNYVSWYQQHPGKAPKLMIYEVSKRPSGVPDRFSGSKSGNTASLTVSGLQAEDEADYYCSSYAGSNNFWVFGGGTKLTVL
B8: EPOR/CD131 binder, HC SEQ ID NO 1637 / LC SEQ ID NO 1773 (antibody, V domains shown)
VH: EVQLVESGGGLVQPGRSLRLSCAASGFTFDDYAMHWVRQAPGKGLEWVSGISWNSGSIGYADSVKGRFTISRDNAKNSLYLQMNSLRAEDTALYYCAKDSGYSPDYWGQGTLVTVSS
VL: SYELTQPPSVSVSPGQTARITCSGDALPKKYAYWYQQKSGQAPVLVIYEDSKRPSGIPERFSGSSSGTMATLTISGAQVEDEADYYCYSTDSSGKGVFGGGTKLTVL
B9: EPOR/CD131 binder, HC SEQ ID NO 1639 / LC SEQ ID NO 1775 (antibody, V domains shown)
VH: QVQVVQSGAEVRKSGASVKVSCKASGYTFTSYYIHWVRQVPGQGLEWMGLINPSGGSTIYAQKFQGRVTMTRDTSTSSVYMELSSLRSEDTAAYYCARGGWGTMDVWGKGTTVTVSS
VL: SSELTQDPAVSVALGQTVRITCQGDSLRSYYASWYQQKPGQAPVLVIYGKNNRPSGIPDRFSGSSSGNTASLTITGAQAEDEADYYCNSRDSSGNHYVFGTGTKVTVL
B10: EPOR/CD131 binder, HC SEQ ID NO 1649 / LC SEQ ID NO 1785 (antibody, V domains shown)
VH: B7 VH with K13Q, S50Y, Y57T, L86P, A88D, D99E, A101I, Y102A, Y103A, T104L
VL: B9 VL with Y97L, T101G, V105L
B11: EPOR/CD131 binder, HC SEQ ID NO 1645 / LC SEQ ID NO 1781 (antibody, V domains shown)
VH: B9 VH with V4L, R12K, S14P, V40A, L50I, S57T, I59N, S78T, A93V, G100D
VL: QSALTQPASVSGSPGQSITISCTGTSSDVGNYNYVSWYQQHPGKVPKLMIYEVIYRPSGVSNRFSGSKSGNTASLTISGLQAEDEADYYCTSYTRNNTYVFGSGTKVTVL
B12: EPOR/CD131 binder, HC SEQ ID NO 1662 / LC SEQ ID NO 1798 (antibody, V domains shown)
VH: EVQLVESGGGLVQPGGSLRLSCAASGFTFSSYWMHWVRQAPGKGLVWVSRINSDGSSTSYADSVKGRFTISRDNAKNTLYLQMNSLRAEDTAVYYCARVGWGGHAFDIWGQGTMVTVSS
VL: B9 VL with Y97V, T101G, V105L
B13: EPOR/CD131 binder, HC SEQ ID NO 1640 / LC SEQ ID NO 1776 (antibody, V domains shown)
VH: EVQLVESGGGLVQPGGSLRLSCAASGFTFSSYDMHWVRQATGKGLEWVSAIGTAGDTYYPGSVKGRFTISRENAKNSLYLQMNSLRAGDTAVYYCARAWELDAFDIWGQGTMVTVSS
VL: B9 VL with Y97V, T101G, V105L
B14: EPOR/CD131 binder, HC SEQ ID NO 1670 / LC SEQ ID NO 1806 (antibody, V domains shown)
VH: EVQLVESGGGLVQPGGSLRLSCAASGFTFSGYWMTWVRQAPGKGLEWVANIKHDGSEKYYVDSVKGRFTISRDNAQNSLYLQMNSLRAEDTAVYYCARKQLWLNWYFDFWGRGILVTVSS
VL: B9 VL with S29R, N51D, A77T, Y97L, T101G, V105L
B15: EPOR/CD131 binder, HC SEQ ID NO 1643 / LC SEQ ID NO 1779 (antibody, V domains shown)
VH: EVQVMESGGGLVKPGGSLRLSCAASGFSFSSHSLNWVRQAPGKGLEWVSSISGISNYIAYADSVRGRFTISRDNAKNSLFLQMNSLRAEDTGVYYCARITVVSFDYWGQGTLVTVTS
VL: QSALTQPASVSGSPGQSITISCTGTNNDVGYYNYVSWYQQHPDKAPKLMIYDVIKRPSGVSDRFSGSKSGNTASLTISGLQAEDEADYYCCSYAGSSTWVFGGGTKLSVL
B16: EPOR/CD131 binder, HC SEQ ID NO 1651 / LC SEQ ID NO 1787 (antibody, V domains shown)
VH: QVQLVQSGAEVEKPGASVKVSCKASGYTFTSYDIYWVRQATGQGLEWMGWMIPNSGNTGYAQRFEDRVTMTRSTSMNTAYMELNSLRSEDTAVYYCARGDWAWSFDLWGRGTLVTVSS
VL: QSALTQPASVSGSPGQSITISCTGTSSDVGGYNYVSWYQQHPGKAPKLMIYEVSHRPSGVSNRFSGSKSGNTASLTISGLQAEDESDYYCSSYTSSSSLVFGGGTKLTVL
B17: EPOR/CD131 binder, HC SEQ ID NO 1654 / LC SEQ ID NO 1790 (antibody, V domains shown)
VH: QVQLVESGGGVVQPGRSLRLSCAASGFTFSNYGMHWVRQAPGKGLDWVAVIWYDGNNEYYADSVKDRFTISRDNSQNTLYLQMNSLRAEDRAVYYCVRGGVGDGFDMWGQGTMVTVSS
VL: B16 VL with A45V, H55N, S86A, S91I, S95N, S96T, S97N, S98T, L99R
B18: EPOR/CD131 binder, HC SEQ ID NO 1652 / LC SEQ ID NO 1788 (antibody, V domains shown)
VH: QVQLVQSGAEVKKPGASVKVSCKASGYTFTSYYMHWVRQAPGQGLEWMGIINPSGGSTSYAQKFQGRVTMTRDTSTSTVYMELSSLRSEDTAVYYCARGLRRDWFDPWGQGTLVTVSS
VL: B16 VL with H55N, S86A, S98T, L99W
B19: EPOR/CD131 binder, HC SEQ ID NO 1663 / LC SEQ ID NO 1799 (antibody, V domains shown)
VH: EVQLVESGGGLVKPGGSLRLSCAASGFTFSTYSMNWVRQAPGKGLEWVSSISSSSTYIYYADSVKGRFTISRDNAKNSLYLQMNSLRAEDTAVYYCARGYNWNYVGDYWGQGTLVTVSS
VL: B16 VL with H55N, S86A, S98T
B20: EPOR/CD131 binder, HC SEQ ID NO 1646 / LC SEQ ID NO 1782 (antibody, V domains shown)
VH: EVQLVESGGGLVQPGGSLRLSCAASGFTFSSYWMSWVRQAPGKGLEWVANIKQDGSEKYYVDSVKGRFTISRDNAKNSLYLQMNSLRAEDTAVYYCARDGTGWFDPWGQGTLVTVSS
VL: QSVLTQPPSVSGAPGQRVTISCTGSSSNIGAGYDVHWYQQLPGTAPKLLIYGNSNRPSGVPDRFSGSKSGTSASLAITGLQAEDEADYYCQSYDSSLSGWVFGGGTKLTVL
B21: EPOR/CD131 binder, HC SEQ ID NO 1668 / LC SEQ ID NO 1804 (antibody, V domains shown)
VH: QVQLQESGPGLVKPSGTLSLTCAISGGSISSSNWWSWVRQPPGKGLEWIGEIYHSGSTNFNPSLKSRVTISVDKSKNQFSLHLSSVTAADTAVYYCARDVGVDGRGFDYWGQGIVVIVSS
VL: SYELTQPPSVSVSPGQTANITCSGDKLENKYTCWYQQKPGQSPLVVIYQDNKRPSGIPERFSGSNSGNTATLTISGTQAMDEADYYCQAWDSTTAWVFGGGTKLTVL
B22: EPOR/CD131 binder, HC SEQ ID NO 1650 / LC SEQ ID NO 1786 (antibody, V domains shown)
VH: EVQLVESGGGLVQPGGSLRLSCAASGFTFSSYDMHWVRQATGKGLEWVSAIGTAGDTYYPGSVKGRFTISRENAKNSLYLQMNSLRAGDTAVYYCARGDHSYGGLDYWGQGTLVTVSS
VL: SYELTQPPSVSVSLGQMARITCSGEALPKKYAYWYQQKPGQFPVLVIYKDSERPSGIPERFSGSSSGTIVTLTISGVQAEDEADYYCLSADSSGTYRVFGGGTKLTVL

target: hCD131-Fc (IME021) (human) (UniProt P32927); assay: B cells sorted with labelled hEPOR-Fc and hCD131-Fc, then sequenced

binding, binds:
B1
B2
B3
B4
B5
B6
B7
B8
B9
B10
B11
B12
B13
B14
B15
B16
B17
B18
B19
B20
B21
B22
